According to PubChem BioAssay AID587 (National Center for Advancing Translational Sciences (NCATS), 2007):
Out of some 59,000 compounds screened, about 35 (0.06%) were called active. Inconclusive results, whose numbers are uncertain, are shown with a selection of clear calls. Rule as the data show it: active = max dye-equivalent concentration above about 10 nM; inconclusive = between about 1.1 nM and that limit; inactive = weaker than that.

Experiment: qHTS Assay for Spectroscopic Profiling in Texas Red Spectral Region
Conditions: Compound fluorescence, Texas Red channel, 547/618 nm; active compounds read high
Method in brief: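 Texas Red-region profiling: compounds in 100 mM Tris pH 8.0 were read at 547/618 nm after 15 min at room temperature. Intensities were normalized against a six-point Texas Red standard series to give dye-equivalent concentration.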

Compound | max dye-equivalent concentration
COc1ccc2c(c1)c1ncn(CCN3CCCC3)c(=O)c1n2C | inconclusive: 2 nM
CC(n1cnnn1)C12CC3CC(CC(C3)C1)C2 (stereo unspecified) | inconclusive: 1.4 nM
O=C(COC(=O)C1CCN(S(=O)(=O)c2cccs2)CC1)c1ccc2c(c1)OCCO2 | inconclusive: 1.1 nM
O=S(=O)(NCCCCCNS(=O)(=O)c1ccccc1)c1ccccc1 | inconclusive: 1.7 nM
Cn1c(=O)cc(SCC(=O)NCCN2CCN(c3ccccc3F)CC2)c2cc(Cl)ccc21 | inconclusive: 1.5 nM
COc1ccccc1CC(=O)N(CCC#N)CCC#N | inconclusive: 1.6 nM
c1nc(N2CCOCC2)c2c3c(sc2n1)CCCC3 | inconclusive: 1.5 nM
COc1ccc(CC(=O)N2CC(=O)N(CCc3ccccc3)C(=O)C2)cc1 | inconclusive: 1.9 nM
CC(C)N(C(=O)CSc1nnc(-c2cc3ccccc3cc2O)n1Cc1ccco1)C(C)C | inconclusive: 3.2 nM
CC(C)Oc1nc(-c2ccccc2O)nc2ccccc12 | inconclusive: 1.4 nM
O=C(O)c1cncc(C(=O)O)c1 | inactive
O=C1c2sc3nc4c(c(=O)n3c2C(=O)N1c1ccccc1)CCC4 | inconclusive: 1.3 nM
CN(C)c1nc(N)nc(Cn2ccnc2)n1 | inconclusive: 2.3 nM
COCCN(C(=O)Cc1cccs1)c1nnc(-c2ccncc2)s1 | inconclusive: 1.1 nM
O=C(c1ccncc1)N1CCC2(CCN(Cc3ccncc3)CC2)CC1 | inactive
CCCCn1cnc2c(cnn2-c2ccc(F)cc2)c1=O | inconclusive: 1.1 nM
C=C(C)Cn1c(=O)c2c(nc3n2CCN3c2cccc(Cl)c2C)n(C)c1=O | inconclusive: 1.3 nM
Nc1nc(SCCc2ccccc2)c2[nH]cnc2n1 | inactive
CS(=O)(=O)N(CC(=O)N1CCN(Cc2ccccc2)CC1)C1CCCCC1 | inconclusive: 1.1 nM
Cc1ccc2nc3c(cc2c1)c(NC(=O)c1cccnc1)nn3C | inconclusive: 1.7 nM
OCCNCc1ccc(OC2CCCC2)cc1 | inconclusive: 1.1 nM
Cc1cc2n(n1)SC(Nc1ccccc1)N2 (stereo unspecified) | inconclusive: 1.1 nM

Compound | max dye-equivalent concentration
NS(=O)(=O)c1cc2c(cc1C(F)(F)F)NCNS2(=O)=O | inconclusive: 1.2 nM
CC(=O)c1c(C)[nH]c(C(=O)NCCc2ccccc2)c1C | inconclusive: 1.3 nM
Cc1noc(C)c1COC(=O)COc1cccc2c1OC(C)(C)C2 | inconclusive: 2.2 nM
CC1CCCCC1NC(=O)CN1CCC(O)(c2ccc(F)cc2)CC1 (stereo unspecified) | inconclusive: 1.4 nM
COc1cccc(C(c2nnnn2CS(=O)(=O)c2ccc(C)cc2)N2CCN(C)CC2)c1OC (stereo unspecified) | inconclusive: 2.4 nM
O=C(NCc1ccco1)C(c1cccnc1)N(C(=O)Cn1nnc2ccccc21)c1ccc(F)cc1 (stereo unspecified) | inconclusive: 1.5 nM
O=C(NCc1cccnc1)c1cc(S(=O)(=O)N2CCCCC2)ccc1Cl | inconclusive: 1.2 nM
O=C(c1cccc(S(=O)(=O)N2CCOCC2)c1)N1CCCc2ccccc21 | inconclusive: 1.9 nM
CCOC(=O)c1c(C)[nH]c(C(=O)COC(=O)c2oc3ccc(OC)cc3c2C)c1C | inconclusive: 1.4 nM
COc1ccc(C(=O)Cn2nnc(-c3ccc(N4CCOCC4)cc3)n2)cc1OC | inconclusive: 1.1 nM
O=C(CSc1nnc(-c2cccs2)n1-c1ccccc1)N1CCOCC1 | inconclusive: 1.7 nM
CCN(CCNC(=O)C1CCN(Cc2nc(-c3cccc(Cl)c3)oc2C)CC1)c1ccccc1 | inconclusive: 1.7 nM
O=c1c2cc3c(cc2[nH]c(=S)n1CCN1CCOCC1)OCO3 | inconclusive: 1.3 nM
Cc1ccc(S(=O)(=O)N2CCC(C(=O)N3CCC[C@H]3C(=O)NC3CCS(=O)(=O)C3)CC2)cc1 (stereo partly specified) | inconclusive: 1.4 nM
O=C(N1CCOCC1)N1CCC(n2nnc3ccccc32)CC1 | inconclusive: 1.2 nM
CC(=O)C(Sc1nn(C)c(=S)s1)C(=O)Nc1ccccc1 (stereo unspecified) | inconclusive: 1.8 nM
C=CCn1c(SC/C=C/c2ccccc2)nnc1-c1sc(N)nc1C | inconclusive: 1.3 nM
CCN(CC)CCCNC(=O)C1CCN(C(=O)c2cc3sccc3n2Cc2ccc(F)cc2)CC1 | inconclusive: 1.4 nM
CCOC(=O)c1csc(NC(=O)CSc2nnnn2-c2ccc(OCC)cc2)n1 | inactive
CCC(O)c1cc2c(cc1NC(=O)c1cccs1)OCCO2 (stereo unspecified) | inconclusive: 1.1 nM
CCSc1nnc(NC(=O)c2nn(C(C)C)c(=O)c3ccccc23)s1 | inconclusive: 1.1 nM
CCN(CC)CCOC(=O)c1c(C)oc2ccc(O)cc12 | inconclusive: 1.6 nM

Compound | max dye-equivalent concentration
Cc1cnc(CNc2ccnc(-c3ccc(N(C)C)cc3)n2)cn1 | inactive
COc1ncc2nc(-c3cccs3)c(=O)n(Cc3ccc(F)cc3)c2n1 | inconclusive: 1.3 nM
COc1ccc(S(=O)(=O)NC(CC(=O)NC2CCCC2)c2ccco2)cc1 (stereo unspecified) | inconclusive: 1.3 nM
COc1ccc(-n2c(C)cc(C(=O)COC(=O)Cn3cnc4ccccc43)c2C)cc1 | inconclusive: 1.8 nM
O=c1c2ccccc2nc2sc3ccccc3n12 | inconclusive: 1.1 nM
O=C(O)[C@@H](S)[C@H](S)C(=O)O | inactive
CCNc1nc(NC(C)C)nc(N(C#N)CCOc2ccc(Cl)cc2Cl)n1 | inconclusive: 1.1 nM
COc1ccccc1OCC(=O)Nc1cccc(-c2nc3ccccc3o2)c1 | inconclusive: 1.2 nM
CCCCOP(=O)(c1ccc(N(C)C)cc1)C(O)c1ccncc1 (stereo unspecified) | inconclusive: 1.1 nM
COC(=O)C1=C(C)NC(C)=C([N+](=O)[O-])[C@H]1c1ccccc1C(F)(F)F | inconclusive: 1.1 nM
CCN(CC)c1nc(Nc2ccccc2)nc(Oc2ccc(=O)[nH]n2)n1 | inconclusive: 2.4 nM
CCOc1ccccc1-c1nnc(SCC(=O)Nc2ccccc2)o1 | inconclusive: 1.3 nM
c1ccc(-c2ccc(-n3ccnc3)cc2)cc1 | inconclusive: 1.4 nM
COc1cc(NS(=O)(=O)c2cc(C)ccc2OC)c(OC)cc1Cl | inconclusive: 1.9 nM
CCn1c2c(c3cc(Br)ccc31)CCC/C2=N\O | inconclusive: 1.2 nM
Cc1ccc(OCC(O)CN2CCN(CC(O)COC(C)C)CC2)c(C(C)(C)C)c1 (stereo unspecified) | inconclusive: 3.3 nM
CCCC(=O)Nc1ccc(NC(=O)c2cccc(OC)c2)nc1 | inconclusive: 1.3 nM
O=C(COC(=O)c1ccco1)Nc1ccc(Br)cc1 | inconclusive: 1.8 nM
CCOC(=O)c1c(C)n(C)c2ccc(O)c(CN(C)C)c12 | inconclusive: 1.8 nM
CCCCN(CCCC)S(=O)(=O)c1ccc(C(=O)Nc2nnc(COC)o2)cc1 | inconclusive: 1.7 nM
CC(C)N(Cc1nc(-c2ccccc2)no1)C(=O)CCCN1C(=O)c2ccccc2C1=O | inconclusive: 1.5 nM
Nc1nnc(SCCOc2ccc(Br)cc2)s1 | inactive

An excerpt of these results, tab-delimited:
Compound	max dye-equivalent concentration
COc1ncc2nc(-c3cccs3)c(=O)n(Cc3ccc(F)cc3)c2n1	inconclusive: 1.3 nM
COc1ccc(S(=O)(=O)NC(CC(=O)NC2CCCC2)c2ccco2)cc1 (stereo unspecified)	inconclusive: 1.3 nM
COc1ccc(-n2c(C)cc(C(=O)COC(=O)Cn3cnc4ccccc43)c2C)cc1	inconclusive: 1.8 nM
O=c1c2ccccc2nc2sc3ccccc3n12	inconclusive: 1.1 nM
O=C(O)[C@@H](S)[C@H](S)C(=O)O	inactive
CCNc1nc(NC(C)C)nc(N(C#N)CCOc2ccc(Cl)cc2Cl)n1	inconclusive: 1.1 nM

Carrying on:

Compound | max dye-equivalent concentration
O=C(CCCCn1c(=O)c2ccccc2n(Cc2ccc(Cl)cc2)c1=O)NCc1ccco1 | inconclusive: 2.6 nM
COCCN(Cc1cc2cc3c(cc2n2nnnc12)OCO3)C(=O)c1ccccc1F | inconclusive: 1.3 nM
Cc1ccc(C(=O)C(C)OC(=O)C2=COCCO2)cc1C (stereo unspecified) | inconclusive: 1.1 nM
Cc1ccc(S(=O)(=O)Nc2ccc3nc(N)sc3c2)cc1 | inconclusive: 1.1 nM
CC(=O)NCCc1ccc(S(=O)(=O)N(C)C2CCS(=O)(=O)C2)cc1 (stereo unspecified) | inconclusive: 1.3 nM
CC1(C)CC(=O)c2cnc(N3CCN(c4ccccc4)CC3)nc2C1 | inconclusive: 1.6 nM
O=C(O)CCCCCNc1nc2ncn(Cc3ccccc3)c2c(=O)[nH]1 | inconclusive: 2.1 nM
COc1cccc2c1C(=O)c1c(O)c3c(c(O)c1C2=O)C[C@@](O)(C(C)=O)C[C@@H]3O[C@H]1C[C@H](N)[C@H](O)[C@H](C)O1 | active: 65 nM
CCCCC(CC)CNC(=O)CCS(=O)(=O)c1cccc2nonc12 (stereo unspecified) | inconclusive: 1.1 nM
COc1cc(-c2noc(-c3ccccc3C(=O)NCc3ccco3)n2)cc(OC)c1OC | inconclusive: 1.1 nM
O=C(Oc1cccc(-n2cnnn2)c1)c1sc2ccccc2c1Cl | inconclusive: 1.5 nM
COc1cccc(Oc2ccc(N)cn2)c1 | inconclusive: 1.2 nM
COC(=O)C1=C(C)NC(=O)NC1c1cn(-c2ccccc2)nc1-c1cccs1 (stereo unspecified) | inconclusive: 1.1 nM
C=CCOn1c(=O)c(-c2cc3ccccc3o2)[n+]([O-])c2ccccc21 | inactive
Cc1c(NC(=O)C(C)OC(=O)COc2cccc3c2OC(C)(C)C3)c(=O)n(-c2ccccc2)n1C (stereo unspecified) | inconclusive: 1.4 nM
Cc1[nH]c2ccccc2c1C(=O)CSc1ncn[nH]1 | inconclusive: 1.4 nM
CCN1CCCC1CNc1ncnc2c1[nH]c1ccc(Cl)cc12 (stereo unspecified) | inconclusive: 1.8 nM
O=C(/C=C\c1ccc(O)cc1)c1ccc(O)cc1O | inconclusive: 1.1 nM
Cc1cc(Nc2ccccc2N2CCOCC2)n2ncnc2n1 | inconclusive: 1.1 nM
CCOC(=O)c1c(C)[nH]c(C=Nc2ccccc2)c1O | inconclusive: 1.1 nM
